pIC50: −log10 of the molar value. Some results were stated once for a whole list of compounds, not compound by compound.
Target: T1, PARP1 (Homo sapiens, UniProt P09874)
T1 construct: purchased BPS Bioscience
Assay: PARP1 Biochemical Assay (BPS Bioscience kit, chemiluminescence)
Conditions: histone-coated plate, biotinilated NAD+, 25° C. for 60 min, luminescence, read-out: PARP 1 inhibition IC50
Experimental: The assay was performed using BPS Bioscience kit. The 96-well strip plate was coated with 50 μl of histone mixture and incubated at 4° C. overnight. Next day the wells were blocked by adding 100 μl of blocking buffer. The plate was washed and 25 μl of appropriate concentration of PARP1 (25-75 ng/well) was added in all the Test and Positive control wells. In Negative control wells enzyme was replaced with 25 μl of water. To it 5 μl each of 10×PARP assay buffer and activated DNA was added in all the wells (Test, Positive and Negative control wells). 10× concentration of test compounds were prepared and 5 μl test compounds were added respective wells. Reaction volume was made up to 45 μl by adding water to all the wells. Finally, 5 μl of 10×PARP assay mixture containing biotinilated NAD^+ was added in each well and the plate was incubated at ambient temperature (25° C.) for 60 min. […] The plate was washed and the luminescence was read in PHERAStar plate reader after adding 100 μl of chemiluminescent substrate.
PARP inhibition was calculated using the following formula: % PARP inhibition=100−[(RLU test compound treated sample−RLU negative control)/(RLU Positive control−RLU negative control)×100]
IC50 values were calculated by plotting % inhibition against the respective concentrations of test compounds using GraphPad Prism 5.

Sequences of proteins named here, by UniProt entry; tags and fusion partners are left off.
UniProt P09874, whole entry: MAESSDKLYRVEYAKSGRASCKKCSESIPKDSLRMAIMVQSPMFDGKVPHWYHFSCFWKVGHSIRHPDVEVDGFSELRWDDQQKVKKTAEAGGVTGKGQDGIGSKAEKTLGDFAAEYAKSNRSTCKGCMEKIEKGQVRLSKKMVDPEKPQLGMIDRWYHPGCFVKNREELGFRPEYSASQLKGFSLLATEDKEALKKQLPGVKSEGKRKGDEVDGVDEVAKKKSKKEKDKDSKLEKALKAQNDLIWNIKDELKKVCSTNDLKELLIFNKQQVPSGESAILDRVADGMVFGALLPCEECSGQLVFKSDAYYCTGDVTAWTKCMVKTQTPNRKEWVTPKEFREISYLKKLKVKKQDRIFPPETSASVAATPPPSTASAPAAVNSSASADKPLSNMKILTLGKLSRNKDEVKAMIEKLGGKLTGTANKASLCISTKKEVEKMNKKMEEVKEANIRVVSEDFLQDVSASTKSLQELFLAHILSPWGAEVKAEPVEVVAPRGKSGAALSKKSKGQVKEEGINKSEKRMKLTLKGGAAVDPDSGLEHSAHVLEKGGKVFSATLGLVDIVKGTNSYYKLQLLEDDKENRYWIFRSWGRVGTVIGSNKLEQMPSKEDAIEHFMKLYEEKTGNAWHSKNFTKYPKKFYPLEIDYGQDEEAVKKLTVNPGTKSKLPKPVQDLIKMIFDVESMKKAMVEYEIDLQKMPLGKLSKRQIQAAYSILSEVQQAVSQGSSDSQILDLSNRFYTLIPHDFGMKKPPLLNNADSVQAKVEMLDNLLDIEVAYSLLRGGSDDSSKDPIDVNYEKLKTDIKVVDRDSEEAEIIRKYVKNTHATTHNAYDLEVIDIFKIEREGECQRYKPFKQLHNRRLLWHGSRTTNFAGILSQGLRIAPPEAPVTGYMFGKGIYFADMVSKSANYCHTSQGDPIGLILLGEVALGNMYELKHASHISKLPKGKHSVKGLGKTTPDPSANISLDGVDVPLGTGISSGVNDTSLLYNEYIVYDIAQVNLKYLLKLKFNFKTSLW

Row | Substance | pIC50
1 | 2′-(3-(3-(4-fluorophenyl)-3,8-diazabicyclo[3.2.1]octan-8-yl)propyl)-4a′,5′,6′,7′-tetrahydro-3′H-spiro[cyclopropane-1,8′-quinazolin]-4′(8a′H)-one [Compound 4] | 5.30 to 6.30
2 | (S)-2′-(3-(4-(4-fluorophenyl)-2,2-dimethylpiperazin-1-yl)cyclopent-1-en-1-yl)-7′,8′-dihydro-3′H-spiro[cyclopropane-1,6′-quinazolin]-4′(5′H)-one [Compound 66] | 3.30 to 5.30
